Results deposited as PubChem BioAssay AID1259405 (NCATS, 2018).

Assay: 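Silenced genes that increase secreted GFP made by CHO cells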 (primary screen)
Cell system: Chinese hamster CHO-K1 ovary cells with stable secreted eGFP expression
Knock-down reagent: single siRNA against mouse genes, 0.8 pmol siRNA per well (2 µl of 400 nM stock)
Time to read-out: 3 days
Measured: 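Per-well intracellular GFP measured by laser scanning cytometry, plus viability from ATP luminescence, each relative to plate median of non-targeting control wells, in %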
Scale: GFP, % of control: higher = more GFP per well, higher productivity; viability (ATP), % of control: higher = more viable cells (more ATP)
Call rule: 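Called active when intracellular GFP, relative to negative control, is at or above 120%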
In all, the deposit lists about 50,000 reagents; shown is a part drawn at random. Over the whole deposit, about 4,000 (8%) are marked active. 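Mouse siRNA library applied to hamster cells; one well for each siRNA.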 Reagents against one gene are numbered here.

no.	gene knocked down	siRNA no.	GFP, % of control	viability (ATP), % of control	activity call
1	Sypl1	1	81.9	79.4	inactive
2	Sypl1	2	129	89.7	active
3	Jmjd6	1	101	124	inactive
4	Jmjd6	2	74.1	41.7	inactive
5	Jmjd6	3	85.2	89.4	inactive
6	Rgs10	1	91.5	94.3	inactive
7	Rgs10	2	88.3	76.4	inactive
8	Rgs10	3	51.8	32.9	inactive
9	Acadl	1	77.7	64.3	inactive
10	Acadl	2	22.9	39.6	inactive
11	Acadl	3	73.9	81.2	inactive
12	Cacng4	1	97.2	108	inactive
13	Cacng4	2	129	109	active
14	Cacng4	3	70.2	67	inactive
15	Mlc1	1	90.6	104	inactive
16	Mlc1	2	67.8	38.7	inactive
17	Endod1	1	73.3	75.1	inactive
18	Endod1	2	82.7	79.8	inactive
19	Traf3ip2	1	132	109	active
20	Traf3ip2	2	104	82	inactive
21	Traf3ip2	3	168	116	active
22	Tab1	1	65.4	69.4	inactive
23	Tab1	2	76.3	63.6	inactive
24	Scaf11	1	92.4	84	inactive
25	Scaf11	2	75.4	64.1	inactive
26	Scaf11	3	29.7	57.8	inactive
27	Rfx6	1	90.3	71.6	inactive
28	Rfx6	2	75.3	47.7	inactive
29	Rfx6	3	72.1	85.2	inactive
30	Cyp46a1	1	57.9	76.2	inactive
31	Cyp46a1	2	38.4	70.7	inactive
32	Cyp46a1	3	50.8	52.4	inactive
33	Stac2	1	84.7	84.3	inactive
34	Stac2	2	62.4	83.8	inactive
35	Stac2	3	36.5	32	inactive

Part of the list above in another layout:
{"gene knocked down":"Rgs10","siRNA no.":1,"GFP, % of control":91.5,"viability (ATP), % of control":94.3,"activity call":"inactive"}
{"gene knocked down":"Rgs10","siRNA no.":2,"GFP, % of control":88.3,"viability (ATP), % of control":76.4,"activity call":"inactive"}
